Laboratory results reported in paper PMC4264851.
These are yes or no findings as the source states them, for the method shown. In cells and extracts the contact can be indirect. Here binding means that the protein was enriched with, or labelled near, the bait; the list need not be complete. For some of these results: Tags and fused reporters may be left off the sequences shown. Each block holds one binder with its values, some of them ahead of it.

What was measured:
[1] = molecular target: T1, Utp15-FLAG (S. cerevisiae) (UniProt Q04305); test: affinity purification with mass spectrometry; Utp4, Utp5, Utp8, Utp9, Utp10, Utp15-FLAG and Nan1-HA co-expressed in SF21 cells (bacmid K2000); one-step, bait Utp15-FLAG on anti-FLAG affinity matrix, lysate cleared by low-speed centrifugation, buffer A100+ (20 mM Tris-HCl pH 8, 100 mM KCl, 5 mM Mg(OAc)2, 0.5% Triton X-100, 0.1% Tween-20), 4°C, FLAG peptide elution; SDS-PAGE, Coomassie, MS of bands
T1 sequence: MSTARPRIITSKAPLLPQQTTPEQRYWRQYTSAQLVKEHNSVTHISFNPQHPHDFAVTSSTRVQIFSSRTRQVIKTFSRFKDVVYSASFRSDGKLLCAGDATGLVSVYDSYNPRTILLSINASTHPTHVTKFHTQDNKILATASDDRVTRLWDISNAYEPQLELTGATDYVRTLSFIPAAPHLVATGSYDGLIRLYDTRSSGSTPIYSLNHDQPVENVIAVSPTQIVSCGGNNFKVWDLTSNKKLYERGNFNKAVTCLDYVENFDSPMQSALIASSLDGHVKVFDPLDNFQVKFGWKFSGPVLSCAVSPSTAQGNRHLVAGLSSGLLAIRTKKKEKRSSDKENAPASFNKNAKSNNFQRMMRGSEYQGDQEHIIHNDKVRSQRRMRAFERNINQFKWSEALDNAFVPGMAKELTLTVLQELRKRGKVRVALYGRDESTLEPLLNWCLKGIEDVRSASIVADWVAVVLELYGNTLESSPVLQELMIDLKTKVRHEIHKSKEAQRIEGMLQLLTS

[2] = molecular target: T2, Utp4-TAP (S. cerevisiae) (UniProt Q06679); test: affinity purification with mass spectrometry; Utp4-TAP, Utp5, Utp8, Utp9 and Utp15-FLAG co-expressed in SF21 cells (bacmid K2123), without Nan1 and Utp10; one-step, bait Utp4-TAP on IgG Sepharose, TEV elution; SDS-PAGE, Coomassie, MS of bands
T2 sequence: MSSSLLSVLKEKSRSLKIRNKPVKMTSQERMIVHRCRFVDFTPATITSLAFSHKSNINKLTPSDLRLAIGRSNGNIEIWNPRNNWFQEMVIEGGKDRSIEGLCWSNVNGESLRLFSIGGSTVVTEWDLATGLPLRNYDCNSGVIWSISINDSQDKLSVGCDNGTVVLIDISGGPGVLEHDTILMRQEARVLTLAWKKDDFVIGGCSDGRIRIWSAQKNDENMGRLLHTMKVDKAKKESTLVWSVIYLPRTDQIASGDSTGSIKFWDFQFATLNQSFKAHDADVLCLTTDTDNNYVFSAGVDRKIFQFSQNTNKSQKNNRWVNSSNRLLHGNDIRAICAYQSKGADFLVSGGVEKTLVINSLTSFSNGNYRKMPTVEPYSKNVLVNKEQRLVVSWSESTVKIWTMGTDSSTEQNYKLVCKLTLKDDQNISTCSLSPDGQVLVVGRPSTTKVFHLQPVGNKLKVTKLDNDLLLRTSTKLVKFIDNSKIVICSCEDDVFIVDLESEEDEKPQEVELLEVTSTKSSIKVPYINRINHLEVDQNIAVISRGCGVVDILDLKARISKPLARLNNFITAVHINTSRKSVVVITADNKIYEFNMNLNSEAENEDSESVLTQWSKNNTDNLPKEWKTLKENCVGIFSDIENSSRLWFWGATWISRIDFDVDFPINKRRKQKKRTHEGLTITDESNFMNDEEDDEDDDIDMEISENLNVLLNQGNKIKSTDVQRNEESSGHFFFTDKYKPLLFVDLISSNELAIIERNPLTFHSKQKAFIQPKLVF

[3] = molecular target: T1, Utp15-FLAG (S. cerevisiae); test: affinity purification with mass spectrometry; bacmid K2123 (five pentamer proteins); two-step: IgG Sepharose/TEV eluate (Utp4-TAP) purified again on anti-FLAG affinity matrix with Utp15-FLAG as bait, FLAG peptide elution; SDS-PAGE, Coomassie, MS of bands
[4] = molecular target: T3, Nan1-HA (S. cerevisiae) (UniProt Q02931); test: affinity purification with mass spectrometry; bacmid K2000 (all seven tUTP candidates); two-step: anti-FLAG eluate (Utp15-FLAG) purified again on anti-HA affinity matrix with Nan1-HA as bait, HA peptide elution; SDS-PAGE, Coomassie, MS of bands
T3 sequence: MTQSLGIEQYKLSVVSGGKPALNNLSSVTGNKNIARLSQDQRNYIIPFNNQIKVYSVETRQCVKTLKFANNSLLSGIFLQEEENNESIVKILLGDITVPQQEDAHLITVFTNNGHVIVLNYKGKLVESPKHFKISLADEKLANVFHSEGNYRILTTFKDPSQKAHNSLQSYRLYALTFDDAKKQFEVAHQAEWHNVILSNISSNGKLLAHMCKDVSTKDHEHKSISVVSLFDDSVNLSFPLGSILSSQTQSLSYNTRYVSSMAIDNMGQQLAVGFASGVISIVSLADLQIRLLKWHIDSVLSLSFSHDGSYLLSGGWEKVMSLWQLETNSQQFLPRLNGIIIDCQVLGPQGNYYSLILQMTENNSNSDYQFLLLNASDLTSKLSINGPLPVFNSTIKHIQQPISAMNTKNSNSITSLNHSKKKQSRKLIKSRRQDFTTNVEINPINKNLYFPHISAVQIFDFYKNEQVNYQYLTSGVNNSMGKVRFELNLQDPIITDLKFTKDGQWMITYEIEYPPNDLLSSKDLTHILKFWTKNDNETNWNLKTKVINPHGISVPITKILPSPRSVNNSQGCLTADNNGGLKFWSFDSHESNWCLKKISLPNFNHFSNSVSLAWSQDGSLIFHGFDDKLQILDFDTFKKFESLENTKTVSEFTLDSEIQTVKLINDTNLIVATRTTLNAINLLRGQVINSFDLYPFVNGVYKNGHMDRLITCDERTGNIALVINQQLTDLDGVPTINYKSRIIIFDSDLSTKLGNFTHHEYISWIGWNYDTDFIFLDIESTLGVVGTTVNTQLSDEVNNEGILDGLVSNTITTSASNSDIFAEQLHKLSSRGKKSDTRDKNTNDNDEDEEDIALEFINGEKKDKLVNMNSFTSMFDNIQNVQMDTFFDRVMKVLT

[5] = molecular target: T4, Utp6-HA (S. cerevisiae) (UniProt Q02354); test: affinity purification with mass spectrometry; bacmid K1991 (six UTP B proteins); two-step: IgG Sepharose/TEV eluate (Pwp2-TAP) purified again on anti-HA affinity matrix with Utp6-HA as bait, HA peptide elution; SDS-PAGE, Coomassie, MS of bands
T4 sequence: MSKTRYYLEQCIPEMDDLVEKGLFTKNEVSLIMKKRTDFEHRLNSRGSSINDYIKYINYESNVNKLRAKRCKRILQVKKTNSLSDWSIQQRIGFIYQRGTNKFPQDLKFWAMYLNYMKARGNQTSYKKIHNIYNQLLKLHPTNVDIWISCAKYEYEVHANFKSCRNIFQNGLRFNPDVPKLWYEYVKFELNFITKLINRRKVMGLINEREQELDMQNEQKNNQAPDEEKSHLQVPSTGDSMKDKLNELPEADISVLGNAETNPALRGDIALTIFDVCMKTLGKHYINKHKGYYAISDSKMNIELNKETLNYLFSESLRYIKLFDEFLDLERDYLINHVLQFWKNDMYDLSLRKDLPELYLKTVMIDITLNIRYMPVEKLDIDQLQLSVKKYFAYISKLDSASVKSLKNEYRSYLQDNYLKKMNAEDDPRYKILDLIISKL

[6] = molecular target: T5, Pwp2-TAP (S. cerevisiae) (UniProt P25635); test: affinity purification with mass spectrometry; Pwp2-TAP, Utp6-HA, Utp12-FLAG, Utp13, Utp18 and Utp21 co-expressed in SF21 cells (bacmid K1991); one-step, bait Pwp2-TAP on IgG Sepharose, TEV elution; SDS-PAGE, Coomassie, MS of bands
T5 sequence: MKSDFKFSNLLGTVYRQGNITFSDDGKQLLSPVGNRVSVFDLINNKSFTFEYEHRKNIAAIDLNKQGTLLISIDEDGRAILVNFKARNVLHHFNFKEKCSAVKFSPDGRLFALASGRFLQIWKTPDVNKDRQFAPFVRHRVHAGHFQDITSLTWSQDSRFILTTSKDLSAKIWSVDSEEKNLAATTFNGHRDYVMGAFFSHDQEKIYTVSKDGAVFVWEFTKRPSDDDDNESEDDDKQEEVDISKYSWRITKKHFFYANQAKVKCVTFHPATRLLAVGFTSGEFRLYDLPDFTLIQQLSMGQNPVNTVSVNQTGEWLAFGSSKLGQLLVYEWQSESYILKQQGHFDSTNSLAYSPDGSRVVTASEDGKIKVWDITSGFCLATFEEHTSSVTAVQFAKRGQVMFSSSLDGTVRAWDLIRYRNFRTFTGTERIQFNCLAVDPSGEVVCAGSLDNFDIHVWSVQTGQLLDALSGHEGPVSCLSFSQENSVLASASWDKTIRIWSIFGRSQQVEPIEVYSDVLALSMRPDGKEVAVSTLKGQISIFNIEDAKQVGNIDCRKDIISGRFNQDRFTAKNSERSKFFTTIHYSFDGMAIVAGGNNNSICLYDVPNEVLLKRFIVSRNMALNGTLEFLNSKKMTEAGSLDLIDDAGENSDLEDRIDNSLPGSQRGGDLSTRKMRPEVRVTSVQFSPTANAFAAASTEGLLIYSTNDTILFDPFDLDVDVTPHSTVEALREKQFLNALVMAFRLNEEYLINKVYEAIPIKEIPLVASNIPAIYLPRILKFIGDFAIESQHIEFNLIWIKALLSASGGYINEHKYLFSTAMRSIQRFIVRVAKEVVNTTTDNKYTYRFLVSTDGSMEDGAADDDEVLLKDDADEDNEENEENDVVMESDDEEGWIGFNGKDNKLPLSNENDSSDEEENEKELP

[7] = molecular target: T4, Utp6-HA (S. cerevisiae); test: affinity purification with mass spectrometry; bacmid K1992 (six UTP B proteins); two-step: anti-FLAG eluate (Utp12-FLAG) purified again on anti-HA affinity matrix with Utp6-HA as bait, HA peptide elution; SDS-PAGE, Coomassie, MS of bands

- binding [1]: binds
- binding [2]: binds
- binding [3]: binds
- binding [4]: binds weakly
B1: Utp8 (protein, UniProt P53276 1-713)
chain: MPSLSQPFRLATLPKIASLSNFSLQADYVQVADGTFNESTNNITLGISGSSISQYIINPTPKLTFDYPIPSTNIITACNAEKGQANIDGNIEASTDDEANNEKTINTQKKRNVEIWAFGLMVNKGNYTLNVITKALEDTTDTSNDHLSESDIDNKAYTGSDEFLSQYKIKAKAKVMSIKIDTKNSLVIAILQNGLIEIFDFKLTLLHSFDISYDNLKYAKWFTENGTEYVFVLCPLQDDKVCYKLLELTDCGSGESSPIKELSSTIIEGFSFENSKLCYQFGKLYKLNQGKIYIYSLPHCQLQQVIEFPMVDKLSPGDDLISFQPVSVNRVLLTVNNVIYLLDLLHCSTLSQRELTHVKTFQLLKSAVINSEKSHNSKTIAIGISTKNGPNPTSSLEIINIDVGTNTLKDSLGKSFQVGNNDSSVILKPLFDDKDINDKRVKCNDVSGDSSVPVLHCNEVIEKLSALQDNDITSFDDIFFKELKIKEEHYTEKDRYISDPGFLNKVLDLIFGKFSGNDYPKTLTFLLTHPLFPLSRTRNLLSLLRDQPRLFKQAIVTCPNLPLNELLEELFSIRNRELLLDISFRILQDFTRDSIKQEMKKLSKLDVQNFIEFITSGGEDSSPECFNPSQSTQLFQLLSLVLDSIGLFSLEGALLENLTLYIDKQVEIAERNTELWNLIDTKGFQHGFASSTFDNGTSQKRALPTYTMEYLDI

- binding [5]: binds
- binding [6]: binds
- binding [7]: binds
B2: Utp12-FLAG (protein, UniProt Q12220 1-943)
chain: MVKSYQRFEQAAAFGVIASNANCVWIPASSGNSNGSGPGQLITSALEDVNIWDIKTGDLVSKLSDGLPPGASDARGAKPAECTYLEAHKDTDLLAVGYADGVIKVWDLMSKTVLLNFNGHKAAITLLQFDGTGTRLISGSKDSNIIVWDLVGEVGLYKLRSHKDSITGFWCQGEDWLISTSKDGMIKLWDLKTHQCIETHIAHTGECWGLAVKDDLLITTGTDSQVKIWKLDIENDKMGGKLTEMGIFEKQSKQRGLKIEFITNSSDKTSFFYIQNADKTIETFRIRKEEEIARGLKKREKRLKEKGLTEEEIAKSIKESYSSFILHPFQTIRSLYKIKSASWTTVSSSKLELVLTTSSNTIEYYSIPYEKRDPTSPAPLKTHTIELQGQRTDVRSIDISDDNKLLATASNGSLKIWNIKTHKCIRTFECGYALTCKFLPGGLLVILGTRNGELQLFDLASSSLLDTIEDAHDAAIWSLDLTSDGKRLVTGSADKTVKFWDFKVENSLVPGTKNKFLPVLKLHHDTTLELTDDILCVRVSPDDRYLAISLLDNTVKVFFLDSMKFYLSLYGHKLPVLSIDISFDSKMIITSSADKNIKIWGLDFGDCHKSLFAHQDSIMNVKFLPQSHNFFSCSKDAVVKYWDGEKFECIQKLYAHQSEVWALAVATDGGFVVSSSHDHSIRIWEETEDQVFLEEEKEKELEEQYEDTLLTSLEEGNGDDAFKADASGEGVEDEASGVHKQTLESLKAGERLMEALDLGIAEIEGLEAYNRDMKLWQRKKLGEAPIKPQGNAVLIAVNKTPEQYIMDTLLRIRMSQLEDALMVMPFSYVLKFLKFIDTVMQNKTLLHSHLPLICKNLFFIIKFNHKELVSQKNEELKLQINRVKTELRSALKSTEDDLGFNVQGLKFVKQQWNLRHNYEFVDEYDQQEKESNSARKRVFGTVI
